The values that follow come from patent US12280090B2 (priority 2018, dated 2025).

The data set can be described thus: peptide made by a vendor. Conditions: whole synthesis.

Where a sequence shows no end group, the ends are not given.

As for “AFLSTVKNTLINVAGTMIDTFKCKITGVC (AFLSTVKNTLTNVAGTMIDTFKCKITGVC; Antimicrobial peptide based on North American bullfrog, Rana (Lithobates) catesbeiana)”, the outcome is “the service provider was unable to synthesize this peptide despite multiple attempts”.
